According to the supplement of paper PMC3334620:
Over roughly 33,000 sequences, “E-score (-0.5 to 0.5)” has its median near -0.0034; the highest 2% begin near 0.25. This is one part of the list.

Target: T1, Yap3 (UniProt P38749)
T1 sequence: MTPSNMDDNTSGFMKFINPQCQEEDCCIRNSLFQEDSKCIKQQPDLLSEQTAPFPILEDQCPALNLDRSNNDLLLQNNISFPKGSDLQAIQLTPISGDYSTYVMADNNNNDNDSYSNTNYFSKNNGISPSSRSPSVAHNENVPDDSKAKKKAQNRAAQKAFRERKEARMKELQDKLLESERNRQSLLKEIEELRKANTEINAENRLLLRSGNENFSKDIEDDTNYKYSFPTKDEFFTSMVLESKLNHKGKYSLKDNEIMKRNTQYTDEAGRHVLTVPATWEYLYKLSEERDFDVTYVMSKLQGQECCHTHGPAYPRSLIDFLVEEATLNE
Assay: PBM E-score (8-mer binding enrichment) (E-score (-0.5 to 0.5)); higher = stronger / more preferred TF binding
Settings: protein concentration: 100 nM; construct: GST-full length
Method: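 Universal 'all 10-mer' protein binding microarrays (Agilent AMADID 015681) probed with GST-tagged S. cerevisiae TFs (full-length or DBD) made by in vitro transcription/translation (PURExpress), about 100-200 nM. Bound TF was detected with fluorescent anti-GST. Each ungapped 8-mer (which stands for itself and its reverse complement) is scored by the PBM enrichment score (E-score), a modified Wilcoxon-Mann-Whitney statistic from -0.5 to +0.5, computed with the Universal PBM Analysis Suite. Scale: above 0.35 generally sequence-specific binding.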

Row | Sequence | PBM E-score
1 | TAAGGCAA | 0.0224
2 | ATACCTTA | 0.107
3 | AGTCATTG | -0.0148
4 | CCACGGCA | -0.138
5 | TCAGGCCA | -0.0876
6 | AGTGTTAG | 0.171
7 | AGTGCAGG | -0.00401
8 | CCGAACTC | -0.0627
9 | GGCTGTCA | -0.175
10 | ACAGGGAG | -0.227
11 | AGCGGAAA | 0.127
12 | ACTCTCAT | 0.0427
13 | CCATGTAA | 0.0692
14 | AGATACCA | 0.234
15 | ACAATTTA | 0.193
16 | GAATCTGA | -0.0334
17 | TCACACAA | -0.107
18 | AACGCACG | 0.181
19 | CTTGCGGC | -0.0408
20 | CTCCAGGC | -0.0968
21 | GGCCGGCC | -0.243
22 | ACACCCTC | -0.184
23 | ATGCGACA | 0.102
24 | GCGAACGA | 0.0416
25 | CTTCTGCA | -0.0661

Some of the entries so far, in markdown:

| Row | Sequence | PBM E-score |
| --- | --- | --- |
| 1 | TAAGGCAA | 0.0224 |
| 10 | ACAGGGAG | -0.227 |
| 18 | AACGCACG | 0.181 |
| 21 | GGCCGGCC | -0.243 |

(next part)

Row | Sequence | PBM E-score
26 | GGCAGCAA | -0.0159
27 | AATCCCGG | -0.139
28 | CGTATTCC | 0.0929
29 | GCAGACCC | -0.24
30 | CATGGTGG | -0.102
31 | ACTCGGCT | -0.156
32 | GATCCGAC | -0.0901
33 | CGGCAGCC | -0.207
34 | AATCTTAC | 0.233
35 | AGTCCATA | -0.0535
36 | AAGATGTC | -0.0778
37 | AATCGTGT | 0.113
38 | CACGAGCC | -0.19
39 | AAGTTTGA | 0.128
40 | AGCTTGCA | -0.012
41 | ACGTCCGA | -0.0933
42 | AGTCTTAC | 0.0364
43 | AGACGTCA | -0.0966
44 | AACTCGGA | 0.122
45 | CTTTCCAA | 0.0339
46 | AAGCACAT | 0.0692
47 | ATCCACGG | -0.0109
48 | GTCCCGTA | -0.227
49 | CATGTGCC | 0.0285
50 | CCGTATCC | -0.154

Row | Sequence | PBM E-score
51 | AATTTAAC | 0.113
52 | CACACTAC | -0.0489
53 | AGGGATAT | 0.0521
54 | CAGGGGCA | -0.0801
55 | CTCCTTCA | -0.0217
56 | AGTTTGTG | -0.00677
57 | CTCATGAA | 0.121
58 | ATAAACAA | 0.279
59 | AATTTGCA | 0.127
60 | GCGTAACA | 0.11
61 | CCCATGGC | -0.258
62 | GTCAAACA | -0.116
63 | GTAAGGAA | 0.193
64 | CGAGCGAG | 0.232
65 | ATTATTCG | 0.274
66 | ACCCCGTG | -0.175
67 | CCGCTGGA | -0.108
68 | CGTAATAC | 0.318
69 | TTAAAAAA | 0.25
70 | GTAGCATA | -0.059
71 | CGCATACC | 0.144
72 | AGGCGTAA | 0.0317
73 | AAGGCATG | 0.0283
74 | AAACCTGT | 0.0503
75 | ACATATTC | 0.217

Another view of part of the listing above.
Row	Sequence	PBM E-score
41	ACGTCCGA	-0.0933
42	AGTCTTAC	0.0364
43	AGACGTCA	-0.0966
44	AACTCGGA	0.122
45	CTTTCCAA	0.0339
46	AAGCACAT	0.0692
48	GTCCCGTA	-0.227
49	CATGTGCC	0.0285
50	CCGTATCC	-0.154
51	AATTTAAC	0.113
52	CACACTAC	-0.0489
53	AGGGATAT	0.0521
54	CAGGGGCA	-0.0801
56	AGTTTGTG	-0.00677
57	CTCATGAA	0.121
58	ATAAACAA	0.279
59	AATTTGCA	0.127
60	GCGTAACA	0.11
62	GTCAAACA	-0.116
63	GTAAGGAA	0.193
64	CGAGCGAG	0.232
65	ATTATTCG	0.274
66	ACCCCGTG	-0.175
67	CCGCTGGA	-0.108
68	CGTAATAC	0.318
69	TTAAAAAA	0.25
70	GTAGCATA	-0.059
71	CGCATACC	0.144
72	AGGCGTAA	0.0317
73	AAGGCATG	0.0283
74	AAACCTGT	0.0503
75	ACATATTC	0.217

(next part)

Row | Sequence | PBM E-score
76 | CAGACGGA | 0.0783
77 | ACTAGCAT | -0.0172
78 | AGGCAGTC | -0.114
79 | GGTCCGCA | -0.153
80 | ATCCTCAT | 0.0382
81 | ACCTGCAT | 0.102
82 | CTAATAAG | 0.172
83 | CTCAATTA | 0.156
84 | CGACACGA | 0.154
85 | AACGAAGC | -0.0177
86 | CCAACGTC | -0.155
87 | CCTTCTCC | -0.234
88 | CTAGTTAC | -0.00268
89 | ATCAGACA | 0.101
90 | AACTTGCG | -0.0625
91 | AGGTTGAC | 0.075
92 | AAGGATTA | 0.0246
93 | GTACATTA | 0.0635
94 | CAAGTACA | -0.0722
95 | CACGCTGG | -0.133
96 | CTGACTTC | 0.00453
97 | GGCCCCAC | -0.27
98 | GAGTCGCA | -0.222
99 | CAGGTGAG | -0.0471
100 | GGCAATGA | -0.0444

Row | Sequence | PBM E-score
101 | AAAGTTTC | -0.00036
102 | ACCCTCCA | -0.148
103 | AACGGGCT | -0.0883
104 | GGTGATTA | 0.222
105 | AATCGGCC | -0.0936
106 | CCGATCCA | -0.0131
107 | AGCAACCG | -0.0193
108 | CATCAGGG | -0.0307
109 | GAGTACAA | 0.157
110 | CGGACAAC | 0.0562
111 | CCCGAGCA | -0.0222
112 | ATAGTGAA | 0.0637
113 | GACCCGGA | -0.383
114 | CCAAGTGC | -0.21
115 | GGAATCAA | 0.13
116 | ACACGCCC | -0.0586
117 | CATACCCG | -0.163
118 | GACATGGC | -0.0289
119 | GTGATGAA | -0.00408
120 | GACCGGCA | -0.236
121 | ACCTACAC | -0.132
122 | GTAATGCA | 0.0396
123 | TCCCAAGA | -0.0619
124 | AAAAGCTG | 0.00213
125 | ACAAACAT | 0.0894

Row | Sequence | PBM E-score
126 | CGAACGGA | 0.0704
127 | CACATGAC | 0.0257
128 | AATAATGT | 0.233
129 | ACACGGGT | -0.11
130 | ATTCAGTA | 0.104
131 | CCAGCTAA | -0.126
132 | ATGTCTTA | 0.239
133 | CCAGAGTC | -0.0861
134 | GTAACGCA | 0.0227
135 | CGAGTAAA | 0.0196
136 | AAATATTC | 0.162
137 | GGGTAACC | -0.108
138 | GTCTGGGA | -0.056
139 | AAATAGAA | 0.0373
140 | CCCTTGGC | -0.4
141 | CGCGTTTC | -0.0695
142 | AGCGGTGC | -0.268
143 | GATATTAC | 0.371
144 | AGGTGTAG | -0.00192
145 | AATCGTAT | 0.153
146 | CTAGGCTA | -0.207
147 | AGCGGCAC | -0.18
148 | CATGCAGA | 0.0148
149 | GTTACTGA | 0.106
150 | GGCGTTGA | -0.00354

Row | Sequence | PBM E-score
151 | CAACACAG | -0.0143
152 | TGCTGGAA | -0.0257
153 | GGCCGAGA | 0.0481
154 | ACGCCAAC | -0.0046
155 | ACCTTGCC | -0.0357
156 | AGAACACG | 0.0921
157 | AACGCGTA | 0.106
158 | AAGTCGGT | -0.00755
159 | GTTCGTTA | 0.0613
160 | GCGCTAAA | 0.0819
161 | CGATTTAG | 0.241
162 | GGCACTAC | -0.171
163 | GAGTCGCC | -0.152
164 | GGTACTGA | -0.124
165 | ACTATTCC | 0.157
166 | ATGTGCGG | 0.0165
167 | CGGTTGAG | -0.052
168 | AATTGACC | -0.0226
169 | CTATCCCC | -0.0761
170 | CGCACTAG | -0.0126
171 | ACGAGAAT | 0.192
172 | CAGTATTA | 0.195
